Results published in patent publication US9221875B2, “Amphiphilic peptides for treatment of keratitis” (Agency for Science, Technology and Research, priority 2013, dated 2015).
Like-named read-outs stand apart in the source and are kept apart here. Square brackets hold non-standard residues; d marks the D form. Peptide text beside a SMILES is read from it.

Key:
[1] = tested on: 5 microorganisms tested (S. epidermidis, S. aureus, E. coli, P. aeruginosa, C. albicans); settings: rabbit red blood cells
[2] = tested on: 5 microorganisms tested (S. epidermidis, S. aureus, E. coli, P. aeruginosa, C. albicans); assay type: cell-based; settings: rat red blood cells
Protocol: Red blood cells suspension incubated with PBS was used as negative control.

Structure (SMILES)	SI, selectivity index (HC10 / GM) [1]	SI, selectivity index (HC10 / GM) [2]
CC[C@H](C)[C@H](N)C(=O)N[C@@H](CCCNC(=N)N)C(=O)N[C@H](C(=O)N[C@@H](CCCCN)C(=O)N[C@H](C(=O)N[C@@H](CCCNC(=N)N)C(=O)N[C@H](C(=O)N[C@@H](CCCCN)C(N)=O)[C@@H](C)CC)[C@@H](C)CC)[C@@H](C)CC [(IRIK)2-NH2] (H-IRIKIRIK-NH2; N-terminus assumed)	85.5	44.8
CC[C@H](C)[C@H](N)C(=O)N[C@@H](CCCNC(=N)N)C(=O)N[C@H](C(=O)N[C@@H](CCCCN)C(=O)N[C@H](C(=O)N[C@@H](CCCNC(=N)N)C(=O)N[C@H](C(=O)N[C@@H](CCCCN)C(=O)N[C@H](C(=O)N[C@@H](CCCNC(=N)N)C(=O)N[C@H](C(=O)N[C@@H](CCCCN)C(N)=O)C(C)C)[C@@H](C)CC)C(C)C)[C@@H](C)CC)C(C)C [(IRVK)3-NH2] (H-IRVKIRVKIRVK-NH2; N-terminus assumed)	>>2.6	26.4
CC[C@H](C)[C@H](N)C(=O)N[C@@H](CCCNC(=N)N)C(=O)N[C@H](C(=O)N[C@H](CCCCN)C(=O)N[C@H](C(=O)N[C@H](CCCNC(=N)N)C(=O)N[C@H](C(=O)N[C@@H](CCCCN)C(N)=O)[C@@H](C)CC)[C@@H](C)CC)[C@@H](C)CC [IK8-2D, IRIkIrIK-NH2] (H-IRI[dK]I[dR]IK-NH2; N-terminus assumed)	128.0	
CC[C@@H](C)[C@@H](N)C(=O)N[C@H](CCCNC(=N)N)C(=O)N[C@@H](C(=O)N[C@H](CCCCN)C(=O)N[C@@H](C(=O)N[C@H](CCCNC(=N)N)C(=O)N[C@@H](C(=O)N[C@H](CCCCN)C(N)=O)[C@H](C)CC)[C@H](C)CC)[C@H](C)CC [IK8-all D, irikirik-NH2] (H-[dI][dR][dI][dK][dI][dR][dI][dK]-NH2; N-terminus assumed)	407.0	
